Results taken from patent publication US20250099515A1, “LACTOBACILLUS ACIDOPHILUS TO INCREASE AGMATINE PRODUCTION BY MICROBIOTA” (SOCIETE DES PRODUITS NESTLE S.A., priority 2021, published 2025).

tested on: faeces extracts; test: In house batch fermentation of donor faeces extracts; assay type: cell-based; settings: fermentation with arginine alone; average from concentration at 6 h + 24 h − 0 h

Row | SMILES | Average concentration in house batch [µM]
1 | NCCCCNCCCN [Spermidine, spermidine] | 11.95
2 | NCCCCN [Putrescine, putrescine] | 5141.7
3 | NCCCCN=C(N)N [Agmatine, (4-aminobutyl) guanidine] | 35.29
